# In the supplement of paper PMC8728848:
# This is one part of the list.
# B1: pTFF2 (Sus scrofa), P01359 (protein)
# chain: KPAACRCSRQDPKNRVNCGFPGITSDQCFTSGCCFDSQVPGVPWCFKPLPAQESEECVMEVSARKNCGYPGISPEDCAARNCCFSDTIPEVPWCFFPMSVEACHY
# What was measured:
# Assay in all cases: glycan array binding signal (z-score within array); higher = stronger binding
# Conditions in all cases: glycan notation: IUPAC condensed, linker removed
# [1] = molecular target: Gal(b1-3)GlcNAc(b1-6)GalNAc
# Method in brief: (§1)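 Glycan array binding is given as a within-array Z-score, which can be read as non-binding when negative. The arrays, 3228 of them, came from the Consortium for Functional Glycomics database and were retained only where the protein sequence was available. Z-scores were averaged across arrays of the same protein sequence at different concentrations or buffers and across linkers.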
# [2] = molecular target: Gal(b1-3)GlcNAc(b1-6)[Gal(b1-3)]GalNAc
# Method in brief: as §1
# Gal(b1-3)GlcNAc6S = molecular target: Gal(b1-3)GlcNAc6S
# Method in brief: as §1
# [3] = molecular target: Gal(b1-3)[Fuc(a1-4)]GlcNAc
# Method in brief: as §1
# [4] = molecular target: Gal(b1-3)[Fuc(a1-4)]GlcNAc(b1-2)Man
# Method in brief: as §1
# [5] = molecular target: Gal(b1-3)[Fuc(a1-4)]GlcNAc(b1-2)Man(a1-3)[Gal(b1-3)[Fuc(a1-4)]GlcNAc(b1-2)Man(a1-6)]Man(b1-4)GlcNAc(b1-4)[Fuc(a1-6)]GlcNAc
# Method in brief: as §1
# [6] = molecular target: Gal(b1-3)[Fuc(a1-4)]GlcNAc(b1-3)Gal(b1-3)[Fuc(a1-4)]GlcNAc
# Method in brief: as §1
# [7] = molecular target: Gal(b1-3)[Fuc(a1-4)]GlcNAc(b1-3)Gal(b1-4)[Fuc(a1-3)]GlcNAc
# Method in brief: as §1
# [8] = molecular target: Gal(b1-3)[Fuc(a1-4)]GlcNAc(b1-6)GalNAc
# Method in brief: as §1
# [9] = molecular target: Gal(b1-3)[GlcNAc(b1-6)]GalNAc
# Method in brief: as §1
# [10] = molecular target: Gal(b1-3)[Neu5Ac(a2-6)]GalNAc
# Method in brief: as §1
# [11] = molecular target: Gal(b1-3)[Neu5Ac(a2-6)]GlcNAc(b1-4)Gal(b1-4)Glc
# Method in brief: as §1
# [12] = molecular target: Gal(b1-3)[Neu5Ac(b2-6)]GalNAc
# Method in brief: as §1
# Gal(b1-4)Gal = molecular target: Gal(b1-4)Gal
# Method in brief: as §1
# [13] = molecular target: Gal(b1-4)GalNAc(a1-3)[Fuc(a1-2)]Gal(b1-4)GlcNAc
# Method in brief: as §1
# [14] = molecular target: Gal(b1-4)GalNAc(b1-3)[Fuc(a1-2)]Gal(b1-4)GlcNAc
# Method in brief: as §1
# Gal(b1-4)Glc = molecular target: Gal(b1-4)Glc
# Method in brief: as §1
# Gal(b1-4)Glc6S = molecular target: Gal(b1-4)Glc6S
# Method in brief: as §1
# Gal(b1-4)GlcNAc = molecular target: Gal(b1-4)GlcNAc
# Method in brief: as §1
# [15] = molecular target: Gal(b1-4)GlcNAc(a1-6)Gal(b1-4)GlcNAc
# Method in brief: as §1
# Gal(b1-4)GlcNAc(b1-2)Man = molecular target: Gal(b1-4)GlcNAc(b1-2)Man
# Method in brief: as §1
# [16] = molecular target: Gal(b1-4)GlcNAc(b1-2)Man(a1-3)Man(b1-4)GlcNAc(b1-4)GlcNAc
# Method in brief: as §1
# [17] = molecular target: Gal(b1-4)GlcNAc(b1-2)Man(a1-3)[Gal(b1-4)GlcNAc(b1-2)Man(a1-6)]Man(b1-4)GlcNAc(b1-4)GlcNAc
# Method in brief: as §1
# [18] = molecular target: Gal(b1-4)GlcNAc(b1-2)Man(a1-3)[Gal(b1-4)GlcNAc(b1-2)Man(a1-6)]Man(b1-4)GlcNAc(b1-4)[Fuc(a1-6)]GlcNAc
# Method in brief: as §1
# [19] = molecular target: Gal(b1-4)GlcNAc(b1-2)Man(a1-3)[Gal(b1-4)GlcNAc(b1-2)Man(a1-6)][Gal(b1-4)GlcNAc(b1-4)]Man(b1-4)GlcNAc(b1-4)[Fuc(a1-6)]GlcNAc
# Method in brief: as §1
# [20] = molecular target: Gal(b1-4)GlcNAc(b1-2)Man(a1-3)[Gal(b1-4)GlcNAc(b1-2)Man(a1-6)][GlcNAc(b1-4)]Man(b1-4)GlcNAc(b1-4)[Fuc(a1-6)]GlcNAc
# Method in brief: as §1
# [21] = molecular target: Gal(b1-4)GlcNAc(b1-2)Man(a1-3)[GlcNAc(b1-2)Man(a1-6)]Man(b1-4)GlcNAc(b1-4)GlcNAc
# Method in brief: as §1
# [22] = molecular target: Gal(b1-4)GlcNAc(b1-2)Man(a1-3)[GlcNAc(b1-4)][Gal(b1-4)GlcNAc(b1-2)Man(a1-6)]Man(b1-4)GlcNAc(b1-4)GlcNAc
# Method in brief: as §1
# [23] = molecular target: Gal(b1-4)GlcNAc(b1-2)Man(a1-3)[Man(a1-6)]Man(b1-4)GlcNAc(b1-4)GlcNAc
# Method in brief: as §1
# [24] = molecular target: Gal(b1-4)GlcNAc(b1-2)Man(a1-6)Man(b1-4)GlcNAc(b1-4)GlcNAc
# Method in brief: as §1
# [25] = molecular target: Gal(b1-4)GlcNAc(b1-2)Man(a1-6)[GlcNAc(b1-2)Man(a1-3)]Man(b1-4)GlcNAc(b1-4)GlcNAc
# Method in brief: as §1
# [26] = molecular target: Gal(b1-4)GlcNAc(b1-2)Man(a1-6)[Man(a1-3)]Man(b1-4)GlcNAc(b1-4)GlcNAc
# Method in brief: as §1
# [27] = molecular target: Gal(b1-4)GlcNAc(b1-2)[Gal(b1-4)GlcNAc(b1-4)]Man(a1-3)[Gal(b1-4)GlcNAc(b1-2)Man(a1-6)]Man(b1-4)GlcNAc(b1-4)GlcNAc
# Method in brief: as §1
# [28] = molecular target: Gal(b1-4)GlcNAc(b1-2)[Gal(b1-4)GlcNAc(b1-4)]Man(a1-3)[Gal(b1-4)GlcNAc(b1-2)[Gal(b1-4)GlcNAc(b1-6)]Man(a1-6)]Man(b1-4)GlcNAc(b1-4)GlcNAc
# Method in brief: as §1
# [29] = molecular target: Gal(b1-4)GlcNAc(b1-2)[Gal(b1-4)GlcNAc(b1-4)]Man(a1-3)[GlcNAc(b1-4)][Gal(b1-4)GlcNAc(b1-2)Man(a1-6)]Man(b1-4)GlcNAc(b1-4)GlcNAc
# Method in brief: as §1
# [30] = molecular target: Gal(b1-4)GlcNAc(b1-2)[Gal(b1-4)GlcNAc(b1-4)]Man(a1-3)[GlcNAc(b1-4)][Gal(b1-4)GlcNAc(b1-2)[Gal(b1-4)GlcNAc(b1-6)]Man(a1-6)]Man(b1-4)GlcNAc(b1-4)GlcNAc
# Method in brief: as §1
# [31] = molecular target: Gal(b1-4)GlcNAc(b1-2)[Gal(b1-4)GlcNAc(b1-6)]Man(a1-6)[Gal(b1-4)GlcNAc(b1-2)Man(a1-3)]Man(b1-4)GlcNAc(b1-4)GlcNAc
# Method in brief: as §1
# [32] = molecular target: Gal(b1-4)GlcNAc(b1-2)[Gal(b1-4)GlcNAc(b1-6)]Man(a1-6)[Gal(b1-4)GlcNAc(b1-2)Man(a1-3)]Man(b1-4)GlcNAc(b1-4)[Fuc(a1-6)]GlcNAc
# Method in brief: as §1
# [33] = molecular target: Gal(b1-4)GlcNAc(b1-2)[Gal(b1-4)GlcNAc(b1-6)]Man(a1-6)[GlcNAc(b1-4)][Gal(b1-4)GlcNAc(b1-2)Man(a1-3)]Man(b1-4)GlcNAc(b1-4)GlcNAc
# Method in brief: as §1
# [34] = molecular target: Gal(b1-4)GlcNAc(b1-2)[Gal(b1-4)GlcNAc(b1-6)]Man(a1-6)[GlcNAc(b1-4)][Gal(b1-4)GlcNAc(b1-2)[Gal(b1-4)GlcNAc(b1-4)]Man(a1-3)]Man(b1-4)GlcNAc(b1-4)[Fuc(a1-6)]GlcNAc
# Method in brief: as §1
# [35] = molecular target: Gal(b1-4)GlcNAc(b1-3)Gal(b1-3)GalNAc
# Method in brief: as §1
# [36] = molecular target: Gal(b1-4)GlcNAc(b1-3)Gal(b1-3)GlcNAc
# Method in brief: as §1
# [37] = molecular target: Gal(b1-4)GlcNAc(b1-3)Gal(b1-4)Glc
# Method in brief: as §1
# [38] = molecular target: Gal(b1-4)GlcNAc(b1-3)Gal(b1-4)GlcNAc
# Method in brief: as §1
# [39] = molecular target: Gal(b1-4)GlcNAc(b1-3)Gal(b1-4)GlcNAc(b1-2)Man(a1-3)[Gal(b1-4)GlcNAc(b1-3)Gal(b1-4)GlcNAc(b1-2)Man(a1-6)]Man(b1-4)GlcNAc(b1-4)GlcNAc
# Method in brief: as §1
binder,measurement,setting,value
B1,glycan array binding signal (z-score),[1],-0.598
same,glycan array binding signal (z-score),[2],0.066
same,glycan array binding signal (z-score),Gal(b1-3)GlcNAc6S,-0.886
same,glycan array binding signal (z-score),[3],0.273
same,glycan array binding signal (z-score),[4],-0.709
same,glycan array binding signal (z-score),[5],-0.85
same,glycan array binding signal (z-score),[6],0.775
same,glycan array binding signal (z-score),[7],-0.511
same,glycan array binding signal (z-score),[8],-0.796
same,glycan array binding signal (z-score),[9],0.621
same,glycan array binding signal (z-score),[10],-0.388
same,glycan array binding signal (z-score),[11],-0.172
same,glycan array binding signal (z-score),[12],-0.703
same,glycan array binding signal (z-score),Gal(b1-4)Gal,-2.31
same,glycan array binding signal (z-score),[13],0.721
same,glycan array binding signal (z-score),[14],1.44
same,glycan array binding signal (z-score),Gal(b1-4)Glc,0.777
same,glycan array binding signal (z-score),Gal(b1-4)Glc6S,0.896
same,glycan array binding signal (z-score),Gal(b1-4)GlcNAc,-0.819
same,glycan array binding signal (z-score),[15],-2.1
same,glycan array binding signal (z-score),Gal(b1-4)GlcNAc(b1-2)Man,-2.22
same,glycan array binding signal (z-score),[16],0.982
same,glycan array binding signal (z-score),[17],-1.6
same,glycan array binding signal (z-score),[18],-0.621
same,glycan array binding signal (z-score),[19],0.089
same,glycan array binding signal (z-score),[20],-1.21
same,glycan array binding signal (z-score),[21],-0.258
same,glycan array binding signal (z-score),[22],-1.45
same,glycan array binding signal (z-score),[23],0.659
same,glycan array binding signal (z-score),[24],0.009
same,glycan array binding signal (z-score),[25],0.896
same,glycan array binding signal (z-score),[26],-1.37
same,glycan array binding signal (z-score),[27],-0.702
same,glycan array binding signal (z-score),[28],1.07
same,glycan array binding signal (z-score),[29],0.232
same,glycan array binding signal (z-score),[30],-0.742
same,glycan array binding signal (z-score),[31],-1.84
same,glycan array binding signal (z-score),[32],1.28
same,glycan array binding signal (z-score),[33],-1.08
same,glycan array binding signal (z-score),[34],0.88
same,glycan array binding signal (z-score),[35],0.891
same,glycan array binding signal (z-score),[36],-1.31
same,glycan array binding signal (z-score),[37],0.128
same,glycan array binding signal (z-score),[38],-0.47
same,glycan array binding signal (z-score),[39],-0.706

# Exported with tabs: entries from further up.
binder	measurement	setting	value
B1	glycan array binding signal (z-score)	Gal(b1-3)GlcNAc6S	-0.886
same	glycan array binding signal (z-score)	[31]	-1.84
